We go through 63 molecules from PubChem BioAssay AID493014 (National Center for Advancing Translational Sciences (NCATS), 2011).

This is one part of the list. These are further read-outs of the screen, such as a control signal, another cell line or another target. No call is given for them. Most of these compounds were active or inconclusive in the main read-out, so they are no random draw. The note in brackets gives the kind of curve behind each potency; many fits are weak.

This assay can be described thus: qHTS Assay to Find Inhibitors of Chronic Active B-Cell Receptor Signaling. The conditions noted are these: ABC-DLBCL IkBa-CBG/CBR reporter, luminescence ratio (green luciferase fused to IkBa over red control in TMD8 lymphoma cells), 4 h. In short, it runs like this: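 Compounds up to 46 uM were incubated four hours with TMD8 cells whose green CBG68 luciferase is fused to IkappaBalpha; red CBR luminescence normalised the signal, and concentration-effect curves were fitted to fusion, red and ratio data.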
Background: In qHTS, concentration-response curves come from the screen itself.

Setting [1] is: measured here: CBR red luminescence, cell number.
[2] abbreviates: measured here: IkBa-CBG green luminescence.

A word on the AC50: it is the concentration at which the activity in the assay is half-maximal. Take `COC(=O)/C=C1\NCCNC1=O`: the AC50 under setting [1] was 1.12 µM [rising, partial curve].
The same measure, in the same setting: with `COCCn1c(C)cc(O)c(C(c2ccccc2)N2CCCCC2)c1=O` (configuration not stated) the figure was 22.4 µM [rising, partial curve, poor fit]; with `Cc1cc(=O)[nH]c(SCC(=O)OCc2ccccc2)c1C#N`, 2.24 µM [rising, full curve].
As to `Cc1csc(NC(=O)CSc2nc3[nH]ncc3c(=O)[nH]2)n1`, under setting [1], the half-maximal activity concentration (AC50) is 5.01 µM [falling, partial curve, poor fit].
Regarding `COc1ccc(-c2nc(N)nc(N)n2)c(O)c1`, the AC50 under setting [1] is 6.51 µM [falling, partial curve].
As to `CN1CCN(C(c2ccc(Cl)cc2)c2cc(Cl)c3cccnc3c2O)CC1` (configuration not stated), the concentration at half-maximal activity (AC50) under setting [1] was 12.6 µM [falling, single point].
With `Cc1c(C(=O)NCCn2ccc3ccccc32)cccc1[N+](=O)[O-]`, the AC50 under setting [1] is 28.2 µM [falling, single point].
Consider `CCc1ccccc1NC(=O)C(C#N)Cc1cccnc1` (configuration not stated), for which the AC50 under setting [1] was 4.11 µM [falling, single point].
Consider `O=[N+]([O-])c1c(NCCCO)cc(Sc2ccc(Cl)cc2)c2nonc12`, for which, under setting [1], the AC50 was 3.66 µM [falling, partial curve, poor fit].
With `Cc1cc(C)n(-c2nc3ccccc3c(=O)n2OCC(=O)Nc2c(C)cccc2C)n1`, the AC50 under setting [1] is 16.4 µM [rising, single point].
With `Cc1c(N=C2NC(=O)C(CC(=O)Nc3ccccc3)S2)c(=O)n(-c2ccccc2)n1C` (configuration not stated), the concentration at half-maximal activity (AC50) under setting [1] was 6.51 µM [rising, partial curve, poor fit].
In the case of `O=C(O)/C=C/C(=O)Nc1ccccc1SC(F)(F)C(F)(F)C(F)(F)F`, the half-maximal activity concentration (AC50) under setting [1] was 10 µM [falling, partial curve].
On to `CN(C)c1cccc(C(=O)Nc2ccc(N3CCOCC3)cc2)c1`, for which, under setting [1], the AC50 is 18.4 µM [falling, partial curve, poor fit].
Consider `CC(C)N(C)C1CCN(C(=O)Nc2ccc(Cl)cc2)CC1`, for which, under setting [1], the AC50 was 22.4 µM [rising, single point].
`O=C(C(NS(=O)(=O)c1cccc2nsnc12)c1ccccc1)N1CCN(c2ccccc2)CC1` (configuration not stated): the concentration at half-maximal activity (AC50) under setting [1] is 0.0058 µM [falling, full curve, poor fit].
Turning to `CCOC(=O)c1ccccc1NC(=S)N1CCCCC1`, the AC50 under setting [1] was 20.6 µM [rising, partial curve, poor fit].
As for `CCn1cc(C(=O)OCC(=O)c2cc(C)n(-c3ccccc3)c2C)c(=O)c2ccc(C)nc21`, the AC50 under setting [1] is 1.3 µM [rising, full curve, poor fit].
Turning to `CC(=O)c1c(C)[nH]c(C(=O)NCc2cccc(Cl)c2)c1C`, under setting [1], the AC50 was 25.1 µM [rising, partial curve, poor fit].
Same read-out and setting: with `Cc1ccc(NC(=O)C(=O)NCc2ccc(/C=N/NC(=O)c3c(C)nc4cc(C)ccn34)o2)cc1` the figure was 0.103 µM [falling, full curve, poor fit]; with `Cc1ccc(CSc2ncn(-c3ccccc3)n2)cc1`, 11.6 µM [rising, partial curve, poor fit]; with `CC(C)(C)c1csc(NC(=O)c2ccc3nccnc3c2)n1`, 15.8 µM [falling, partial curve, poor fit].
For the molecule `O=C(COC(=O)c1n[nH]c2ccccc12)NCCc1ccc(Cl)cc1`, the half-maximal activity concentration (AC50) under setting [2] is 16.4 µM [falling, partial curve, poor fit].
As to `CSC1=NC(C(Cl)(Cl)Cl)N=C(c2ccc(C)cc2)N1` (configuration not stated), the AC50 by setting is: under setting [1], 4.47 µM [rising, single point]; under setting [2], 3.16 µM [falling, single point].
Take `CC(C)(C)CC(C)(C)NCC(=O)Nc1c2c(nc3ccccc13)CCC2`: the AC50 under setting [1] was 11.2 µM [falling, single point].
In the case of `COc1ccc(CCNC(=O)c2cc(-c3ccc(C)c(C)c3O)n[nH]2)cc1OC`, under setting [1], the half-maximal activity concentration (AC50) was 16.4 µM [rising, partial curve, poor fit].
For `CCCNCCC(c1ccco1)c1ccccc1OC` (configuration not stated), the half-maximal activity concentration (AC50) under setting [1] was 0.562 µM [rising, partial curve, poor fit].
The same measure, in the same setting: under `CCOC(=O)c1sc2nc3n(c(=O)c2c1C)CCC3` stands 2.31 µM [rising, full curve, poor fit]; under `COc1cc([N+](=O)[O-])ccc1NC(=O)N1CCCCCC1`, 35.5 µM [falling, single point]; under `COc1ccc(Cl)cc1Nc1nc(N)nc(C(F)(F)F)n1`, 11.2 µM [rising, partial curve].
For `Cc1ccnc(Nc2nc(-c3ccc(F)cc3)cs2)c1`, under setting [1], the AC50 was 12.6 µM [falling, partial curve, poor fit].
For `COc1cc2ncnc(NCc3cccc(Cl)c3)c2cc1OC`, the half-maximal activity concentration (AC50) under setting [1] is 35.5 µM [falling, single point].
With `COC(=O)c1sc2ccccc2c1-n1cccc1C(=O)C(=O)Nc1ccc(Cl)cc1`, under setting [1], the half-maximal activity concentration (AC50) was 12.6 µM [falling, partial curve, poor fit].
The same measure, in the same setting: with `Cc1cc(C)n(C(=O)CN2C(=O)CCC2=O)n1` the figure was 2.59 µM [rising, partial curve]; with `CCCCn1c2ccc(C)cc2c2nnc(SCCN3CCCCC3)nc21`, 3.55 µM [falling, single point].
As for `COc1ccc([N+](=O)[O-])cc1N(CC(O)CN(CC(C)C)CC(C)C)S(=O)(=O)c1ccc(C)cc1` (configuration not stated), the half-maximal activity concentration (AC50) under setting [1] is 35.5 µM [falling, single point].
On to `CC(OC(=O)c1cccc(S(=O)(=O)Nc2cccc(C(F)(F)F)c2)c1)C(=O)Nc1ccc2c(c1)OCCO2` (configuration not stated), for which the AC50 runs as follows: under setting [1], 25.9 µM [falling, single point]; under setting [2], 23.1 µM [rising, single point].
With `COc1ccccc1OCC#CCSc1ncccn1`, the AC50 under setting [1] is 11.2 µM [falling, partial curve, poor fit].
In the case of `Cc1nccn1-c1ccc(C(F)(F)F)cc1[N+](=O)[O-]`, the AC50 under setting [1] was 35.5 µM [rising, single point].
Take `CCCCNC(=O)c1cccc(NC(=O)C(=O)c2ccccc2NC(C)=O)c1`: under setting [1], the concentration at half-maximal activity (AC50) was 20.6 µM [rising, single point].
For the molecule `O=C(COC(=O)CNC(=O)c1ccc(Br)o1)Nc1ccccc1OC(F)F`, the half-maximal activity concentration (AC50) under setting [1] is 20 µM [rising, partial curve, poor fit].
With `CN(C)CCCNC(NC(=O)c1cccs1)C(Cl)(Cl)Cl` (configuration not stated), the AC50 under setting [1] was 20.6 µM [falling, single point].
For `CCOc1ccccc1N=NC1C(=O)N(C(N)=S)N=C1C` (configuration not stated), the AC50 was 5.01 µM [rising, partial curve, poor fit] under setting [1] and 2.51 µM [falling, partial curve, poor fit] under setting [2].
For `CC(=O)Nc1ccc(N2CCN(c3ccc(F)cc3)CC2)cc1`, the concentration at half-maximal activity (AC50) under setting [1] was 15.8 µM [rising, partial curve, poor fit].
On the same count and under the same terms, with `COc1ccccc1NC(=O)CSCC(=O)N1c2ccccc2CCc2ccccc21` the figure was 29.1 µM [falling, single point].
In the case of `NNc1nc2ccc(F)cc2s1`, under setting [1], the AC50 is 16.4 µM [falling, partial curve, poor fit].
Take `CN(c1cccc(NC(=O)CN(c2cccc(Cl)c2)S(=O)(=O)c2ccc(Cl)cc2)c1)S(C)(=O)=O`: the AC50 under setting [1] was 2.59 µM [falling, full curve].
On the same count and under the same terms, under `CC(=O)Nc1cccc(OCC(=O)Nc2sccc2C(N)=O)c1` stands 3.55 µM [rising, single point]; under `COc1ccc(-c2cc(C(F)(F)F)nc(S(=O)(=O)CCCC(=O)Nc3cc(C)on3)n2)cc1OC`, 11.2 µM [falling, partial curve, poor fit]; under `Cc1cc(C(C)(C)C)oc1C(=O)N(CC(=O)NC1CCCC1)Cc1ccccc1Cl`, 18.4 µM [falling, single point].
Still for that read-out and setting: under `COc1ccc2nc(NC(=O)Cc3cccs3)sc2c1` stands 25.9 µM [falling, single point].
For `O=C(COc1ccc(Br)cc1CO)Nc1ccccc1F`, the AC50 under setting [1] is 12.6 µM [falling, partial curve].
As to `Cc1cc(C(=O)NNC2CC(=O)N(c3ccc4ccccc4c3)C2=O)c(C)o1` (configuration not stated), the AC50 under setting [1] is 7.08 µM [falling, full curve, poor fit].
`COc1ccc(Oc2nnc(C)c3ccccc23)cc1`: under setting [1], the AC50 is 29.1 µM [rising, single point].
As for `CN(C(=O)n1cnc2ccccc21)c1ccccc1`, the AC50 under setting [1] was 0.651 µM [rising, full curve, poor fit].
As for `O=C1/C(=C\c2cccnc2)Sc2ccccc21`, the AC50 under setting [1] is 1.3 µM [falling, partial curve, poor fit].
The same measure, in the same setting: with `COC(=O)CSc1nc(N)c2c3c(sc2n1)CCCC3` the figure was 20 µM [falling, partial curve, poor fit]; with `CC1(C)C(c2ccc(Cl)cc2)=[N+]([O-])C2(CCCC/C2=N\O)N1O` (configuration not stated), 8.91 µM [falling, partial curve, poor fit].
`O=C(Cn1cc(/C=C\[N+](=O)[O-])c2ccccc21)Nc1ccccc1`: the AC50 runs as follows: under setting [1], 35.5 µM [rising, single point]; under setting [2], 20 µM [falling, partial curve].
Turning to `COCCCn1c(=O)c2sccc2n(Cc2cc(C(=O)OC)ccc2OC)c1=O`, the concentration at half-maximal activity (AC50) under setting [1] was 35.5 µM [falling, single point].
For the molecule `Cc1ccc(OCc2ccc(C(=O)NN)o2)c([N+](=O)[O-])c1`, the AC50 under setting [1] was 7.94 µM [falling, partial curve].
In the case of `Cc1ccc(-n2c(N)c(C(=O)N3CCOCC3)sc2=S)cc1`, the AC50 under setting [1] is 25.9 µM [falling, partial curve, poor fit].
For `COc1ccc(NC(=S)N2CCC(c3ccc(C)cc3)C2)cc1` (configuration not stated), the half-maximal activity concentration (AC50) under setting [1] is 8.91 µM [rising, partial curve, poor fit].
For the molecule `CC(=O)N1N=C(c2ccccc2)CC1c1cn(C)c2ccccc12` (configuration not stated), the half-maximal activity concentration (AC50) under setting [1] is 8.2 µM [falling, partial curve].
